# Test results reported in patent US20130345268A1, “Methods and Compositions for the Treatment of RAS Associated Disorders” (The Trustees of Dartmouth College, priority 2009, published 2013).
# No dose or concentration is given here for some results.
# Tested on: T265 (NF1-/-) and STS26T (NF1+/+) MPNST cell lines
# Experiment: NF1 screen: differential growth inhibition of T265 versus STS26T MPNST cells
# Format: cell-based, human
# Details: Table 4; 26T IC50 versus T265 IC50
row,SMILES,Fold Difference
1,N=C(N)SCc1cn(-c2ccccc2)nc1-c1cccc(Br)c1 [Formula Ia],38.7
2,Cc1ccc(Cn2c(=N)n(CC(O)c3ccc(Br)cc3)c3ccccc32)cc1 (stereo not drawn) [VIII],17.7
3,CCc1cc(-c2ccccc2OS(=O)(=O)c2ccc3ccccc3c2)nn1CCNCCc1ccc(OC)c(OC)c1 [V],8.1
